This is one part of the list.
The compounds below were run on T1, CTL2-GFP (C. trachomatis L2/434/Bu, GFP-expressing). Details: bulk GFP, single well; 28.5 h, 10 µM; inhibitor.
T1 construct: L2/434/Bu, GFP-expressing
Set-up: species or system HeLa; Intracellular C. trachomatis growth in HeLa cells, bulk GFP fluorescence relative to DMSO

SMILES | % of control remaining [%]
COc1ccc(C(NC(=O)C2CCC(N)CC2)c2ccccc2C)cn1 (centres unmarked) [CBK078551] | 114.725
FC(F)(F)c1nc2ccccc2nc1SCCc1ccccn1 [CBK103731] | 117.962
NNC(=O)/C(=C\c1cccc([N+](=O)[O-])c1)NC(=O)c1ccc(Br)o1 [CBK262573] | 108.01
COc1ccc(C(NC(=O)C2CCN(S(C)(=O)=O)CC2)c2ccccc2C)cn1 (centres unmarked) [CBK059738] | 142.803
C=C(C)CN1CCN(C(=O)c2[nH]c3ccc(OCC)cc3c2C)CC1 [CBK282666] | 111.691
Cc1cccc(NCC(=O)N/N=C/c2cc3ccccc3nc2Cl)c1 [CBK261236] | 100
Clc1ccc(Cl)c(N/N=C(\c2ccccc2)c2cccnc2)c1 [CBK015932C] | 72.53
CC(=O)Nc1ccc(-c2nc3ccc(-c4ccc5nc(-c6ccc(NC(C)=O)cc6)oc(=O)c5c4)cc3c(=O)o2)cc1 [CBK261391] | 105.416
CCOC(=O)CN1CCN(C(=O)Nc2ccccc2Br)CC1 [CBK044156] | 132.072
CC(C)NC(=O)Cn1c(-c2cccs2)cc2cccnc21 [CBK282454] | 144.717
Cc1cccc(-n2c(SCC(=O)Nc3ccc(Br)cc3F)nnc2-c2ccccc2)c1 [CBK265903] | 126.25
Cc1cc(C)n2ncc(C(=O)N3CCCC3c3ccsc3)c2n1 (centres unmarked) [CBK305616] | 112.939
FC(F)(F)c1ccnc(OC2CCNC2)n1 (centres unmarked) [CBK113296] | 109.511
O=C(Nc1cccc2cccnc12)c1sc2ccccc2c1Cl [CBK262132] | 106.177
O=C(NC1CC2(CCOCC2)Oc2ccccc21)c1cccs1 (centres unmarked) [CBK285377] | 115.877
CC(C)(C)c1ccc(NC(=O)N(Cc2ccccc2C(F)(F)F)CC2CCNCC2)cc1 [CBK049752] | 120.748
COc1ccc(NC(=O)CSc2ncnc3sc(C)cc23)c(OC)c1 [CBK277541] | 138.693
Cc1n[nH]c(C)c1CC(=O)NC(Cc1cccs1)c1nccs1 (centres unmarked) [CBK285093] | 112.891
Cc1nc(-c2cccnc2)[nH]c(=O)c1CCC(=O)N1CCNC(C)C1 (centres unmarked) [CBK304163] | 112.694
COc1cc(/C=N/n2c(S)nnc2C(F)(F)F)cc(Br)c1O [CBK265321] | 125.864
CN(Cc1ccccc1)C(=O)c1ccccc1NC(=O)c1ccccc1 [CBK267818] | 89.3744
COc1ccc(C)cc1CC(=O)N1CCc2c(sc3ncnc(N)c23)C1 [CBK305878] | 108.494
O=C(c1ccccc1[N+](=O)[O-])n1nc(-c2cccnc2)nc1NCc1cccs1 [CBK269094] | 116.381
O=c1c2cc(F)ccc2nc2n1CCN(Cc1cccs1)CC2 [CBK284859] | 82.1793
O=C(Cn1cnc2ccc(F)cc2c1=O)N1CCOC2CCCCC21 (centres unmarked) [CBK253316] | 110.624
Cc1cccnc1C(Cc1ccsc1)NC(=O)CCc1ccno1 (centres unmarked) [CBK284804] | 137.673
CC(=O)c1ccc(C(=O)N2CCC3(CC2)CC(=O)c2ccc4ccccc4c2O3)cc1 [CBK156458] | 128.827

SMILES | % of control remaining [%]
CN(C)CCN(C)Cc1ccc2ccc3cccc4ccc1c2c34 [CBK261860] | 120.616
COc1cc(C(=O)N2CCN(C(=O)CC(C)C)CC2)cc(OC)c1OC [CBK003604] | 100
FC(F)(F)c1ccnc(OCCN2CCOCC2)c1 [CBK113286] | 118.875
CC(=O)c1sc(NC(=O)c2ccc(Br)o2)nc1C [CBK057948] | 166.803
COc1ccc(C2(C(=O)NCc3ccc4c(c3)OCO4)CC2)cc1 [CBK149829] | 89.7882
O=C(O)c1ccc(C(=O)Nc2cccc(NC(=O)C3CCCO3)c2)cc1 (centres unmarked) [CBK268613] | 119.042
CSc1nc(NC(=O)c2ccoc2)cc(N2CCNCC2)n1 [CBK050314T] | 124.087
COc1ccc(-c2cc(C(F)(F)F)nc(SCC(=O)N(C)c3ccccc3)n2)cc1OC [CBK267628] | 113.13
O=S(=O)(Cc1ccc(Br)cc1F)c1ccccn1 [CBK019368] | 99.0258
COc1ccc2nc(C)c(CCC(=O)O)c(O)c2c1 [CBK286955] | 110.774
O=C(c1cc2ccccc2[nH]1)N1CCN(Cc2ccccc2)CC1 [CBK200172] | 71.0506
O=S(=O)(c1c(Cl)cccc1Cl)n1ccc2c(N3CCNCC3)nccc21 [CBK059060C] | 96.6051
C=CCN1CCCC[C@H]2CN(S(=O)(=O)c3cccc(F)c3)C[C@H]21 [CBK285500] | 95.9392
CC1(CC(=O)N2CCCCCC2)SC(NC2CCCCCC2)=NC1=O (centres unmarked) [CBK074269] | 83.1285
O=c1[nH]nc2cc(NCc3ccc(Cl)cc3)ncn12 [CBK288479] | 88.3429
FC(F)(F)c1ccc(CN2CCCN(c3cc(OC4CCCCC4)ncn3)CC2)cc1 [CBK083277T] | 90.2742
CN(C)CCN(C)c1nc(-c2ccc3[nH]ccc3c2)cn2ccnc12 [CBK066276] | 115.452
O=[N+]([O-])c1ccc(Cl)c(C2N(Cc3ccccc3)CCN2Cc2ccccc2)c1 [CBK261601] | 122.701
CCNS(=O)(=O)c1ccc(NC(=O)c2cc(-c3ccccn3)nc3c(C)c(C)ccc23)cc1 [CBK267733] | 100.257
O=C(O)[C@H](Cc1ccccc1)Nc1ncnc2[nH]cnc12 [CBK287090] | 125.681
O=C(CCn1c(-c2cccnc2)cc2cccnc21)NC1CC1 [CBK282622] | 127.722
O=S(=O)(NCC(Sc1ccc(F)cc1)c1ccccc1)c1ccc(Cl)cc1 (centres unmarked) [CBK266306] | 209.995
FC(F)(F)c1cccc(OCCCc2ccncc2)n1 [CBK115795] | 187.636
NC(=O)c1c(NC(=O)CSc2ccc(Cl)cc2)sc2c1CCCC2 [CBK263101] | 100
COC(=O)CCC(=O)N1CCCC2(CCN(C(=O)c3ccoc3)C2)C1 (centres unmarked) [CBK160988] | 145.111
Fc1cccc2sc(Nc3nc(-c4cccs4)cs3)nc12 [CBK287476] | 140.178
Cc1ccc(C(=O)NCCCNC(=O)c2ccncc2)cc1 [CBK269477] | 142.328

SMILES | % of control remaining [%]
CCNc1nnc(-c2c(Cl)c(C)nn2C)s1 [CBK288014] | 132.261
COCCSc1nc2c(c(=O)[nH]c(=O)n2C)n1CCCc1ccccc1 [CBK140504] | 127.303
Cc1cccc(=O)n1CCCNc1cc(C2CCOC2)ncn1 (centres unmarked) [CBK306992] | 145.633
O=C1COc2ccccc2CCCCC2(CCCN(C(=O)CN3CCCC3=O)C2)CN1 (centres unmarked) [CBK291992] | 110.166
COc1ccc(C(=O)C2=C(O)C(=O)N(CCCN(C)C)C2c2ccc(Cl)c(Cl)c2)cc1 (centres unmarked) [CBK264723] | 113.611
O=C(O)c1cc(-c2cc(Cl)ccc2Cl)nc2ccccc12 [CBK265391] | 100
CCN(c1cc(N2CCCNCC2)ccc1NS(=O)(=O)c1cccc2cccnc12)S(C)(=O)=O [CBK000014C] | 127.369
O=C(N/N=C/c1c(F)cccc1Cl)c1ccccc1O [CBK261815] | 87.693
Cc1sc2nc(SCc3nc4ccccc4[nH]3)n(-c3ccc(Cl)c(Cl)c3)c(=O)c2c1C [CBK264594] | 115.816
Nc1c(-c2ccsc2)cnc2ncccc12 [CBK083707] | 134.054
Cc1cc(C#N)ccc1OCC(=O)NC1CCS(=O)(=O)C1 (centres unmarked) [CBK305816] | 115.746
O=C(O)CC1SC(=O)N(c2ccccc2)C1=O (centres unmarked) [CBK287085] | 124.307
O=[N+]([O-])c1ccc(CN2CCN(c3nccnc3OCC3COc4ccccc4O3)CC2)cc1 (centres unmarked) [CBK082791T] | 85.6062
CCOc1ccc(NC(=O)N(C)Cc2noc(CC(C)C)n2)cc1C#N [CBK307089] | 149.187
O=C1NCC(C(=O)N2CCC3(CC2)CC(=O)c2cc(Br)ccc2O3)N1 (centres unmarked) [CBK156475] | 125.284
Cn1nccc1CN1CCC(Oc2ccccc2F)CC1 [CBK281618] | 124.121
COc1ccc(-n2ncc3c2CC(C)(C)CC3NC(=O)C2CC2)cc1 (centres unmarked) [CBK282337] | 105.247
Cn1c(SCC(=O)c2ccccc2)nc2ccccc2c1=O [CBK055260] | 100
N#Cc1cn(S(=O)(=O)c2cccc(C(F)(F)F)c2)nc1N [CBK067225] | 72.9109
Cc1ccc(S(=O)(=O)N(C)c2ccnc(N3CCNCC3)n2)cc1 [CBK200009] | 97.3908
Cc1cnn(CC(=O)N2CCCC(COc3ccccc3F)C2)c1 (centres unmarked) [CBK281999] | 120.797
Cn1ccnc1C1(O)CC2CCC(C1)N2C(=O)C1CCCC1 (centres unmarked) [CBK284052] | 135.909
O=c1[nH]c2ncc(-c3cccc4ncccc34)nc2n1C1CCCCC1 [CBK064861] | 90.9373
CN(C)CCN(C)C(=O)C1CCN(c2cncc(-c3ccc(O)cc3)n2)CC1 [CBK126928T] | 133.992
Cc1nc2c3ccccc3nc(SCC(=O)Nc3ccccc3)n2n1 [CBK295205] | 119.058
CC(C)(C)c1cc(CCCOC(=O)CNc2ccccc2)cc(C(C)(C)C)c1O [CBK261939] | 103.702

For reference, part of the list above.
SMILES | % of control remaining [%]
CCNc1nnc(-c2c(Cl)c(C)nn2C)s1 [CBK288014] | 132.261
COCCSc1nc2c(c(=O)[nH]c(=O)n2C)n1CCCc1ccccc1 [CBK140504] | 127.303
Cc1cccc(=O)n1CCCNc1cc(C2CCOC2)ncn1 (centres unmarked) [CBK306992] | 145.633
O=C1COc2ccccc2CCCCC2(CCCN(C(=O)CN3CCCC3=O)C2)CN1 (centres unmarked) [CBK291992] | 110.166
COc1ccc(C(=O)C2=C(O)C(=O)N(CCCN(C)C)C2c2ccc(Cl)c(Cl)c2)cc1 (centres unmarked) [CBK264723] | 113.611
O=C(O)c1cc(-c2cc(Cl)ccc2Cl)nc2ccccc12 [CBK265391] | 100
CCN(c1cc(N2CCCNCC2)ccc1NS(=O)(=O)c1cccc2cccnc12)S(C)(=O)=O [CBK000014C] | 127.369
O=C(N/N=C/c1c(F)cccc1Cl)c1ccccc1O [CBK261815] | 87.693
Cc1sc2nc(SCc3nc4ccccc4[nH]3)n(-c3ccc(Cl)c(Cl)c3)c(=O)c2c1C [CBK264594] | 115.816
Nc1c(-c2ccsc2)cnc2ncccc12 [CBK083707] | 134.054
Cc1cc(C#N)ccc1OCC(=O)NC1CCS(=O)(=O)C1 (centres unmarked) [CBK305816] | 115.746
O=C(O)CC1SC(=O)N(c2ccccc2)C1=O (centres unmarked) [CBK287085] | 124.307
O=[N+]([O-])c1ccc(CN2CCN(c3nccnc3OCC3COc4ccccc4O3)CC2)cc1 (centres unmarked) [CBK082791T] | 85.6062
CCOc1ccc(NC(=O)N(C)Cc2noc(CC(C)C)n2)cc1C#N [CBK307089] | 149.187
O=C1NCC(C(=O)N2CCC3(CC2)CC(=O)c2cc(Br)ccc2O3)N1 (centres unmarked) [CBK156475] | 125.284
Cn1nccc1CN1CCC(Oc2ccccc2F)CC1 [CBK281618] | 124.121
COc1ccc(-n2ncc3c2CC(C)(C)CC3NC(=O)C2CC2)cc1 (centres unmarked) [CBK282337] | 105.247
